Literature values as cited in US20110184061A1, “THIO[…] […], METHODS OF MAKING AND METHODS OF USE THEREOF” (priority 2010, published 2011).

Tested on: rat model
Conditions: metabolites of thiocolchicoside, compared with thiocolchicoside

Compound: COc1c(O)cc2c(c1OC)-c1ccc(SC)c(=O)cc1[C@@H](NC(C)=O)CC2 [aglycone derivative]
- muscle relaxant activity: no muscle relaxant activity
